Results are given in words; binding and its absence hold for the method and conditions named. Binding calls can cover weak binding; strength is not graded here.
Target: cyno Claudin 6 (cyno)
Experiment: flow cytometry, engineered cells expressing cyno CLDN6

binding: binds
B1: 97-C10E1-2-P1.z5 (antibody, V domains shown)
VH: QVQLVQSGAEVKKPGASVKVSCKASGYAFTGYTMNWVRQAPGQGLEWIGLSNPYNAGTIYNQKFKGRVTMTVDKSTSTVYMELSSLRSEDTAVYYCARNYYYGSSYAYYYAMDYWGQGTTVTVSS
VL: DIVVTQSPSSLSTSVGDRVTITCRSSTGAVTTSNYANWVQEKPGKAFKGLIGGTNNRAPGVPARFSGSLSGDDAALTISSAQPEDFATYFCALWYSNHWVFGGGTKVEIK
notes: also called candidate antibody

Source: patent US20240317851A1 (LANOVA MEDICINES, published 2024)
